Laboratory results: US20230109717A1 (GAIA BioMedicine Inc., priority 2020, published 2023)
At least one structure is not confirmed: it was looked up by name or label, or the drawing left a doubt.

System: highly active NK cells
Test: Optical microscope observation of highly active NK cells after freeze-thawing
Format: cell-based, human
Conditions: additive in KBM501 medium used for 10-fold dilution after thawing; 37° C. 3 hours (or 4° C. 3 hours then 37° C. 3 hours); cells washed with PBS

For `C[C@@H]1C[C@H]2[C@@H]3CCC4=CC(=O)C=C[C@]4(C)[C@@]3(F)[C@@H](O)C[C@]2(C)[C@@]1(O)C(=O)CO` [dexamethasone], the “Viability of highly active NK cells after freeze-thawing (optical micrographs)” value was “not improved”.

For `C[C@H]1C[C@@H]2[C@H]([C@@H](O)C[C@@]3(C)[C@H]2CC[C@]3(O)C(=O)CO)[C@@]2(C)C=CC(=O)C=C12` [methylprednisolone], the “Viability of highly active NK cells after freeze-thawing (optical micrographs)” value was “not improved”.
